Measurements reported in PubChem BioAssay AID192 (DTP/NCI, 2004).
The list is a part of this screen's results and no random one: it gathers tests that were run many times, whatever their T/C, doses with no T/C, and many T/C values between a quarter and a half above the control. Further doses and runs are listed elsewhere. T/C is the treated group as % of the vehicle group. Some doses have a count of surviving animals in place of a T/C: the source files T/C as zero there, which appears to mark a toxic dose or a test without result, not a measured value. Some survivor counts are full or nearly so, which does not show that the dose was tolerated: survival well below the control is almost never listed, so the zero probably covers shortened survival too. Counts of survivors are from the toxicity check (mostly the fifth day) where no day follows; animals may have died later. Schedule codes are those of the source, read here as Q, the interval in days (D) or hours (H), X, the number of doses. Some doses were run more than once; the results are listed from low to high. Where survival is the endpoint, the PubChem record calls one and a half times the control and up active, and a quarter to a half above the control has no call in these data; cut-offs in other NCI protocols can differ.

Test system: BDF1 mice, B16 melanoma ip, median survival T/C
Assay: NCI In Vivo Anticancer Drug Screen. Data for tumor model B16 Melanoma (intraperitoneal) in B6D2F1 (BDF1) mice
Details: T/C endpoint: median survival time, higher T/C = longer survival
In short: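 Compounds were tested in mice carrying transplantable tumors. Survival or tumor size was recorded, and each value is the treated-group measurement (T) divided by that of the vehicle-treated control group (C).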

[1] = dose: 25.0 mg/kg/injection, schedule: Q01DX009 (ip), vehicle: saline with Tween-80
[2] = dose: 100.0 mg/kg/injection, schedule: Q01DX009 (ip), vehicle: saline with Tween-80
[3] = dose: 50.0 mg/kg/injection, schedule: Q01DX009 (ip), vehicle: Klucel (hydroxypropylcellulose) (HPC)
[4] = dose: 200.0 mg/kg/injection, schedule: Q01DX009 (ip), vehicle: Klucel (hydroxypropylcellulose) (HPC)
[5] = dose: 200.0 mg/kg/injection, schedule: Q01DX009 (ip), vehicle: saline with Tween-80
[6] = dose: 400.0 mg/kg/injection, schedule: Q01DX009 (ip), vehicle: Klucel (hydroxypropylcellulose) (HPC)
[7] = dose: 50.0 mg/kg/injection, schedule: Q01DX009 (ip), vehicle: saline with Tween-80
[8] = dose: 200.0 mg/kg/injection, schedule: Q04DX003 (ip), vehicle: Klucel (hydroxypropylcellulose) (HPC)
[9] = dose: 100.0 mg/kg/injection, schedule: Q01DX009 (ip), vehicle: saline
[10] = dose: 50.0 mg/kg/injection, schedule: Q01DX009 (ip), vehicle: saline
[11] = dose: 200.0 mg/kg/injection, schedule: Q01DX009 (ip), vehicle: saline

CCCN(C)/N=N/c1[nH]ncc1C(N)=O
T/C [1]: 134 and 146 % of control | survivor count [2]: 10 of 10

O=C(O)C1Cc2c([nH]c3ccccc23)C(CCCCO)N1 (centres undefined)
survivor count [3]: 10 of 10

CCOC(=O)C1C2OC(=O)C(C(=O)C2CN(CCCl)CCCl)C1C1CC=C(CC2=CCC(C3C4C(=O)OC(C(CN(CCCl)CCCl)C4=O)C3C(=O)OCC)CC2)CC1 (centres undefined)
T/C [3]: 140 % of control | survivor count [4]: 10 of 10 | survivor count [5]: 8 of 10 | survivor count [6]: 10 of 10

COC(=O)[C@@H]1[C@H](O)[C@H](C)[C@H](O)[C@H](C)/C=C\C=C(C)C(=O)Nc2c(C)c(OC(C)=O)c3c(c2O)C(=O)C(C)=C2OCOC(=C23)C(C)=C[C@@](C)(O)[C@H](O)[C@@H](C)[C@H]1OC(C)=O
survivor count [6]: 10 of 10

Cc1ccc2c(ccc(/C=C\c3cc(C)c4cccnc4c3O)[n+]2C)c1
survivor count (dose: 12.5 mg/kg/injection, schedule: Q01DX009 (ip), vehicle: saline with Tween-80): 10 of 10 | survivor count [1]: 2 of 10 | survivor count [7]: 3 of 10

Cc1cccc2cc3c(ccc4ccccc43)c[n+]12
survivor count (dose: 8.0 mg/kg/injection, schedule: Q01DX009 (ip), vehicle: saline sonified): 6 of 6

CCCCCCCC(=O)Nc1ccc(C)cc1
survivor count [8]: 10 of 10

CC(=O)CC(=O)Nc1ccc(-c2ccc(NC(=O)CC(C)=O)c(Cl)c2)cc1Cl
survivor count [6]: 10 of 10

COc1cc(-c2ccc(Nc3ccccc3C(=O)O)c(OC)c2)ccc1N
survivor count [2]: 9 of 10

COc1cc2c(c(OC)c1O)-c1ccc(OC)c(=O)cc1[C@@H](NC(=O)C(F)(F)F)CC2
T/C (dose: 2.5 mg/kg/injection, schedule: Q01DX009 (ip), vehicle: Klucel (hydroxypropylcellulose) (HPC)): 125 % of control | survivor count (dose: 5.0 mg/kg/injection, schedule: Q01DX009 (ip), vehicle: Klucel (hydroxypropylcellulose) (HPC)): 9 of 10 | survivor count (dose: 10.0 mg/kg/injection, schedule: Q01DX009 (ip), vehicle: Klucel (hydroxypropylcellulose) (HPC)): 8 of 10 and 10 of 10 | survivor count (dose: 20.0 mg/kg/injection, schedule: Q01DX009 (ip), vehicle: Klucel (hydroxypropylcellulose) (HPC)): 6 of 10

Nc1nc(N)c2nc(CN(CCO)c3ccc(C(=O)NC(CCC(=O)O)C(=O)O)cc3)cnc2n1 (centres undefined)
T/C (dose: 2.0 mg/kg/injection, schedule: Q01DX009 (ip), vehicle: Klucel (hydroxypropylcellulose) (HPC)): 149 % of control | T/C (dose: 4.0 mg/kg/injection, schedule: Q01DX009 (ip), vehicle: Klucel (hydroxypropylcellulose) (HPC)): 142 % of control | survivor count (dose: 8.0 mg/kg/injection, schedule: Q01DX009 (ip), vehicle: Klucel (hydroxypropylcellulose) (HPC)): 10 of 10 | survivor count (dose: 16.0 mg/kg/injection, schedule: Q01DX009 (ip), vehicle: Klucel (hydroxypropylcellulose) (HPC)): 10 of 10

c1ccc(-c2nc3cnccc3o2)cc1
survivor count (dose: 25.0 mg/kg/injection, schedule: Q04DX003 (ip), vehicle: Klucel (hydroxypropylcellulose) (HPC)): 9 of 10 | survivor count (dose: 50.0 mg/kg/injection, schedule: Q04DX003 (ip), vehicle: Klucel (hydroxypropylcellulose) (HPC)): 8 of 10

CC(C)c1ccc(O)c(O)c1
survivor count [7]: 10 of 10 | survivor count [2]: 10 of 10 | survivor count [9]: 10 of 10 | survivor count [5]: 2 of 10

C[C@]12CC[C@@H]3c4ccc(Oc5nc(N6CC6)nc(N6CC6)n5)cc4CC[C@H]3[C@@H]1CCC2=O
survivor count (dose: 25.0 mg/kg/injection, schedule: Q01DX009 (ip), vehicle: saline): 10 of 10

CCNC(C)(C)C(SSSC(c1cccs1)C(C)(C)NCC)c1cccs1 (centres undefined)
survivor count (dose: 100.0 mg/kg/injection, schedule: Q01DX009 (ip), vehicle: Klucel (hydroxypropylcellulose) (HPC)): 10 of 10

CN(C)CCC1(c2ccccc2)C=Cc2ccccc21 (centres undefined)
survivor count [10]: 8 of 10

[Cl][Pt+2][Cl].[NH-]CC(=O)O.[NH-]CC(=O)O
survivor count [2]: 7 of 10 | survivor count [5]: 7 of 10 | survivor count (dose: 400.0 mg/kg/injection, schedule: Q01DX009 (ip), vehicle: saline with Tween-80): 5 of 10

C=C1C(=O)OC2C1C(OC(=O)/C(C)=C/COC(C)=O)CC1(CO1)C1C(O)C=C(C)C21 (centres undefined)
survivor count (dose: 50.0 mg/kg/injection, schedule: Q01DX009 (ip), vehicle: other): 6 of 10

Clc1ccc2c(c1)-c1ccccc1C1=NCCN12
survivor count (dose: 20.0 mg/kg/injection, schedule: Q01DX009 (ip), vehicle: saline): 7 of 10 | survivor count (dose: 40.0 mg/kg/injection, schedule: Q01DX009 (ip), vehicle: saline): 0 of 10

Cc1ccc(S(=O)(=O)N(CCCCN(S(=O)(=O)c2ccc(C)cc2)S(=O)(=O)c2ccc(C)cc2)S(=O)(=O)c2ccc(C)cc2)cc1
survivor count [8]: 9 of 10

C1CCN(CCC2CCNCC2)CC1
survivor count [9]: 8 of 10

CC1(C)N=C(N)N=C(N)N1c1cccc(CNC(=O)Nc2cccc(S(=O)(=O)F)c2)c1
survivor count [9]: 4 of 6 | survivor count [11]: 0 of 6

COC(=O)C1C2CC3c4[nH]c5cc(OC)ccc5c4CCN3CC2CC(OC2CCCCO2)C1OC (centres undefined)
T/C (dose: 6.25 mg/kg/injection, schedule: Q04DX003 (ip), vehicle: Klucel (hydroxypropylcellulose) (HPC)): 125 % of control | survivor count [8]: 8 of 10 | survivor count (dose: 400.0 mg/kg/injection, schedule: Q04DX003 (ip), vehicle: Klucel (hydroxypropylcellulose) (HPC)): 2 of 10

CCN(CC)CCCCNc1ccc(NCCCCN(CC)CC)c2c1C(=O)c1ccccc1C2=O
survivor count [2]: 5 of 10 | survivor count [5]: 0 of 10

CC1(C)OC2OC(COC(=O)c3ccccc3)C(=O)C2O1 (centres undefined)
survivor count [5]: 10 of 10

N#CCc1ccccc1C(=O)O
survivor count (dose: 50.0 mg/kg/injection, schedule: Q04DX003 (ip), vehicle: gum acacia): 10 of 10 | survivor count (dose: 200.0 mg/kg/injection, schedule: Q04DX003 (ip), vehicle: gum acacia): 10 of 10 | survivor count (dose: 400.0 mg/kg/injection, schedule: Q04DX003 (ip), vehicle: gum acacia): 10 of 10

Cc1cc(=O)n(C)c2ccccc12
survivor count [3]: 10 of 10 | survivor count [4]: 10 of 10

NNc1ncnc2nc[nH]c12
T/C (dose: 6.25 mg/kg/injection, schedule: Q01DX009 (ip), vehicle: saline): 130 % of control | survivor count [10]: 4 of 10 | survivor count [9]: 0 of 10 | survivor count [11]: 0 of 10 | survivor count (dose: 400.0 mg/kg/injection, schedule: Q01DX009 (ip), vehicle: saline): 0 of 10

CN(C)CC(C)(C)CN1c2ccccc2Sc2ccccc21
survivor count [10]: 10 of 10 | survivor count [9]: 8 of 10

N#C[CH2][Sn]([I])([c]1ccccc1)[c]1ccccc1
survivor count [1]: 3 of 10 | survivor count [7]: 0 of 10

CC(O)c1cc(Cl)ccc1Cl (centres undefined)
survivor count (dose: 400.0 mg/kg/injection, schedule: Q04DX003 (ip), vehicle: saline with Tween-80): 9 of 10

Cc1ccc(CNc2ccc(C)cc2)cc1
survivor count [6]: 10 of 10
